All values are in %.
How 0% and 100% were set is not recorded. Most values in the screen are low, and negative values occur.
This is an unselected part of the compounds tested.

Protein sequences, listed by entry. Tags and fused reporters are not part of them.
UniProt E9BF75, entry or part of it: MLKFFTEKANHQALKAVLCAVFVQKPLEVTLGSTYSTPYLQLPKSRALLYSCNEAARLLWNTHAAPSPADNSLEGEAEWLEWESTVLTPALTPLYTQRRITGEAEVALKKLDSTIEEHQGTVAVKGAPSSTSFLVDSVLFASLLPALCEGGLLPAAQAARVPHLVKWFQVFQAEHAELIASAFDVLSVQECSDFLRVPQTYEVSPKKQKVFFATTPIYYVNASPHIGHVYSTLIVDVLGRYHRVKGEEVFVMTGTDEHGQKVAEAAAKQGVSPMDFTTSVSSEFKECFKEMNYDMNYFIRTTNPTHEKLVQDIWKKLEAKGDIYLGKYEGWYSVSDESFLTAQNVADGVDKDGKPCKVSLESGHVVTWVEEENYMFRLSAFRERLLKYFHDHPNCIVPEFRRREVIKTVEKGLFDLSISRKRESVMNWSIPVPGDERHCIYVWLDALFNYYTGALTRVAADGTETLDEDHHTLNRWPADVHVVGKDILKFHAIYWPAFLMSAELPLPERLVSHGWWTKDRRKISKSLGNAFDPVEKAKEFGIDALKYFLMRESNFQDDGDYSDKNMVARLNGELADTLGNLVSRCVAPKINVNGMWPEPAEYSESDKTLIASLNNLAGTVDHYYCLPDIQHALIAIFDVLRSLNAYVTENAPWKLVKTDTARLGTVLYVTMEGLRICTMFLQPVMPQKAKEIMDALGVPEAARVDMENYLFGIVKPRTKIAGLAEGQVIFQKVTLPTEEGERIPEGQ

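Primary screen of methionyl-tRNA synthetase; the read-out is not stated. Target: Methionyl-tRNA synthetase (putative), Leishmania donovani (UniProt E9BF75). The test concentration is not given. The values are filed as inhibition. Size under these conditions: about 68,000 compounds, about 24 of them at 50% or above in at least one test.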

compound	inhibition
O=C1NC2(CCN(Cc3ccccc3Cl)CC2)CC1c1ccccc1 (stereo unspecified)	2.997
COc1ccccc1C1CNC(=O)c2nc(-c3c(C)n[nH]c3C)[nH]c2C1 (stereo unspecified)	17.03
COC(=O)c1cc(C(=O)N2CCN(C)CC2)n(-c2ccccc2)n1	13.66
CC(C)c1cc(C(=O)N(c2ccc(F)cn2)C2CCOCC2)on1	2.506
CN(C)Cc1ccc(C(N)=O)cc1NC(=O)c1cccc(C#N)c1	9.524
COc1c(CNCc2cccnc2OC(C)C)c(C(C)C)nn1C	5.455
Cc1ncsc1CCN(C)C(=O)CN1C(=O)OC[C@@H]1c1ccccc1	8.993
Cc1ccc(NC2CCN(C(=O)c3cccc(F)c3F)CC2)nn1	15.97
O=C(NC1CC1)c1cccc(Oc2ccc3nncn3n2)c1	7.527
Cc1ccc(CCC(=O)N2CCCC(n3cncn3)C2)c(C)c1 (stereo unspecified)	14.69
Cc1ncnc2c1CCN(C(=O)c1cccnc1)CC2	5.263
c1coc(CN2CCC3(CC2)COC(COCC2CC2)C3)c1 (stereo unspecified)	5.042
CS(=O)(=O)NCC1CCCN(C(=O)COCC(F)(F)F)C1 (stereo unspecified)	6.135
c1ccc(C(c2ccccc2)N2CCN(CCn3cncn3)CC2)cc1	5.301
Cn1cc(CC2CCN(C(=O)NCCCc3ccc(O)cc3)C2)cn1 (stereo unspecified)	5.96
O=C(C1CCCC1)N1CCC(c2ccnc(Nc3cnccn3)n2)C1 (stereo unspecified)	6.771
Cc1cnn(CCNCc2ccc(OCc3cscn3)cc2)c1	21.75
NC(=O)C1(c2cnccn2)CCCN1Cc1ccc(Cl)cc1 (stereo unspecified)	9.605
c1ccc(O[C@H]2COCCN(CC3CC3)C2)cc1	11.86
CCNc1ncc(C(=O)NCc2ccc(F)c(C(F)(F)F)c2)cn1	7.645
Cc1ccccc1CN1CC[C@@]2(O)CCN(C(=O)C3CCC3)C[C@H]2C1	3.866
Cc1ccc(-n2nnc(C(=O)NCC3CCCCC3)n2)cc1	10.79
CN1N=C(C(=O)N2CCCC(n3cccn3)C2)CCC1=O (stereo unspecified)	17.48
Cc1cccc(C(=O)NCc2ccc(N3CCCCC3)nc2)n1	15.97
CN1CCc2c(NC(=O)NCc3ccccc3Cl)cccc21	12.63
O=C(NC[C@H]1OC[C@@H](NC2CCC(F)(F)CC2)[C@@H]1O)C1CCCC1	3.051
COc1cc2cc3c(nc2cc1OC)OCCN(CC1CC1)C3	15.82
OCc1ccc(CN2CCC(n3cc(-c4ccc(F)cc4)nn3)CC2)o1	5.344
Cc1cc(NCCNc2ccc(C#N)cn2)nc(C)n1	5.245
COCCc1noc(C2CCN(C(=O)Nc3cccs3)CC2)n1	12.32
CN(C)C(=O)Cc1nc(CN2CCOC(Cn3cccn3)C2)cs1 (stereo unspecified)	6.338
Cn1cc(C(=O)NCc2cncc3c2CCN(c2ccccn2)C3)cn1	5.865
CN(CC(C)(C)C)S(=O)(=O)c1ccc(C(F)(F)F)nc1	10.42
Cc1csc(NC(=O)c2ccc(NC(=O)N3CCOCC3)cc2)n1	13.04
c1ccc(OCC2CC3(CCN(c4ncccn4)CC3)CO2)nc1 (stereo unspecified)	15.35
Cc1csc(NC(=O)CN2CCC(c3ccnn3CCO)CC2)n1	12.68
O=C(C1CCC1)N1CCCC1c1nnc2n1CCCCC2 (stereo unspecified)	9.524
CCc1nc(C)c(C(C)N(C)CCc2ccccn2)s1 (stereo unspecified)	-2.989
O=C(CCO)N[C@H]1CN(CC2CCC2)C[C@@H]1c1ccccc1	12.71
O=C1CNc2ncnc(N3CCN(Cc4ccccc4F)CC3)c2N1	10.48
Cc1cc(C)n(CCCC(=O)N2CCc3ncc(Cl)cc3C2)n1	7.074
Cc1ccc(-c2cn[nH]c2C2CCCN(c3ccnc(C)n3)C2)cc1 (stereo unspecified)	14.61
COc1cc(C(=O)NS(=O)(=O)c2cccc(C#N)c2)cc(Cl)c1OC	-2.222
Cc1cc2c(=O)n3c(nc2s1)CCN(C(=O)c1scnc1C)CC3	14.73
N#Cc1c2n(c3c(N)ncnc13)CCCCC2	3.89
c1ccc(-c2noc(CN3CCC(c4ccn[nH]4)CC3)n2)cc1	14.86
Cc1nc(CN(C)C2CCN(CC(=O)N3CCOCC3)C2)no1 (stereo unspecified)	10.48
Cc1noc(C)c1CN1CCc2nn(C(C)C)c(=O)cc2C1	13.39
CCOc1ccc(C2CCCN2C(=O)NCCn2ccnc2)cc1 (stereo unspecified)	11.72
CSc1ccccc1CN1CCn2nc(CNC(C)=O)cc2C1	15.27
Cn1cc(C2CCCN2C(=O)c2ccc(OCC3CC3)nc2)cn1 (stereo unspecified)	9.777
COc1ccc(OC)c(CCNC(=O)NC(C)Cn2ccnc2)c1 (stereo unspecified)	4.082
O=S(=O)(C1CC1)N1CC[C@H](OCC2CC2)[C@@H]1Cc1cccnc1	12.41
O=C(CC1CC1)N1CCn2cc(Cn3cncn3)nc2C1	19.61
CNc1cc(C)nc(C2CN(Cc3cc[nH]n3)CCO2)c1 (stereo unspecified)	12.67
Cc1cnccc1-c1cnn(CCNC(=O)C(C)(C)C)c1C1CC1	9.494
c1cncc(-c2noc(CNc3ncnc4c3CCNCC4)n2)c1	13.33
c1cc(-c2noc(CN3CCn4c(nnc4C4CC4)C3)n2)cs1	23.69
CN(C)C1CCN(C(=O)Cc2csc(-c3ncccn3)n2)CC1	12.57
CC(C)CCCNC(=O)Nc1ccc(F)c(C(N)=O)c1	9.408
CN1CCN(c2cc(NC(=O)Cn3ccc4ccccc43)ncn2)CC1	19.42
O=C1CCCc2[nH]c(=O)c(C(=O)N(CC3CCCCC3)C3CC3)cc21	17.18
CCC(CO)Nc1nc(C(F)F)nc2ccccc12 (stereo unspecified)	7.551
Cc1n[nH]c(C2CN(CC(=O)NCCc3ccccc3)CCO2)n1 (stereo unspecified)	8.982
CCc1cnc(NC2CCc3c(ccc(=O)n3C)C2)nc1 (stereo unspecified)	5.245
Cn1ccnc1CN1CCN(Cc2ccc(C#N)cc2F)CC1	14.29
CC1CN(C(=O)c2ccnc(OCCN(C)C)c2)c2ccccc21 (stereo unspecified)	3.495
Cc1noc(NC(=O)c2ccc(Br)s2)n1	7.874
CN1CC(C(=O)NCCc2ccc(F)c(Br)c2)CC1=O (stereo unspecified)	21.67
Cc1ccc(CN2CCCC(c3cncc(C)n3)C2)cn1 (stereo unspecified)	15.29
O=C1COC2(CCN(CC3CCOCC3)CC2)CN1Cc1ccccn1	8.125
CSc1ccc(C(CC(=O)O)NC(=O)c2cc(C)on2)cc1 (stereo unspecified)	9.938
Cc1nn(C)c(C)c1S(=O)(=O)NCCn1ccc(-c2cccs2)n1	1.863
CC(Cn1cccn1)NC(=O)N(C)Cc1cnn(C)c1 (stereo unspecified)	12.13
COc1ccccc1[C@@H]1CN(Cc2cnn(C)c2C)C[C@H]1C(=O)O	10.86
Cc1nc(C2CCCN(C(=O)CN3CCCNC3=O)C2)sc1C (stereo unspecified)	15.24
CN(CC(=O)N1CCC(N(C)c2ccccc2)CC1)c1cnccn1	13.02
COc1cc(CNC(C)Cn2cccn2)cc2c1OCCO2 (stereo unspecified)	16.81
Cc1ccc(C(=O)N(Cc2ccc(F)cc2F)C2CC2)c(=O)[nH]1	3.97
COc1ccccc1-n1nc(CC(C)C)nc1CSc1nnc(N)s1	11.23
Cc1cc(CN2CCCC(c3cc(C(F)(F)F)[nH]n3)C2)no1 (stereo unspecified)	18.21

5 of the entries, repeated:

Result for Cc1cnn(CCNCc2ccc(OCc3cscn3)cc2)c1 was 21.75%.
Result for COc1cc2cc3c(nc2cc1OC)OCCN(CC1CC1)C3 was 15.82%.
Result for O=C(C1CCCC1)N1CCC(c2ccnc(Nc3cnccn3)n2)C1 (stereo unspecified) was 6.771%.
Result for CN(C)Cc1ccc(C(N)=O)cc1NC(=O)c1cccc(C#N)c1 was 9.524%.
Result for O=C1COC2(CCN(CC3CCOCC3)CC2)CN1Cc1ccccn1 was 8.125%.

The values are deposited in ChEMBL (CHEMBL3988442, “University of Dundee, Small-Polar-MMV Screening Library” (2021)).